Experimental data from PMC5021340.

Biological target: Mig1 (Xanthophyllomyces dendrorhous) (UniProt A0A1C9UL02)
Assay: EMSA
Conditions: poly(dI-dC), 20 mM HEPES pH 7.9, 50 mM KCl, 1 mM DTT, 0.1 mM EDTA, 5% glycerol (+2.5%), 200 ug/ml BSA, 50 ng/ul poly(dI-dC), 0.05% NP-40, 20 fmol DNA, 10 ug Mig1 in 20 ul, recombinant protein, label: 5' biotin
[1] = shift lost with unlabelled DNA, probe letters rebuilt from the primers and the genome

| Sequence | binding result [1] | binding result |
| --- | --- | --- |
| GGCATCGAAACCTGGGCTGACTCGGCCGTCGAAACCCCGGGTGAGCTCAGGTTCTTCATCGACAACTACGGCTGTCGAGAGTGGGCCGGCTGGTAGAACACGGGCGGCGGCTGCGACGGGGGGTGCGGCTTTAGGCCCTGCAACTGCGTCTGGAGCAAGTGCTGCCACTGAGGCCGCTGTGGC (double strand) [crtS promoter box A 183 bp] | binds |  |
| CATCCATCAGAGGTGCAGCCGCTGCTGGACGAGGTGGGGCCTCGACCAGGGGTGCTAGAGGTGGACGGGCGCCGACGACATTATTCGCAGGTGCACTGGGTAAAGCCCAGGCAAGTGGAACGGGCACAAAACGAGCTCGACCGGAAGATGATGCGGCGGCAACTGGTTCTGGGCTGGGGAACACCCTATTCGACCGGTTGAATG (double strand) [crtS promoter boxes B-C 204 bp] | binds |  |
| CAGAAGATGGGTCCACCGATAGTGGTTTGAAAGGAGATGGGTGGAATAGAGACAAATGGGGAATTCCAGTTTTGCCTTTGACGAGAAAGGACACTGGGTTGGAAAGAGAAGATGGTACGTTCTTCTCCACCTTGAATGTGTTGCTTACTAGACATGTTTGACACGCTAATGCATTTCTTTCCACTTTGACTTTTGAACTATGGTGGTTGGGCGATCCCCAAAATCATTAGCTTCTACTTCAGCTCATTACCTCG (double strand) [crtYB promoter 254 bp] | binds |  |
| GACCGGGCTCGACTGTCGAACGAGCGGACCAGAGATGCCGGCGAGATGGGCTG (double strand) [grg2 box B (-220) 53 bp] |  | no binding |

Construct, isoform or probe ends are uncertain for at least one entry. Negatives hold for the conditions tested. At least one verdict was read from the data and is not stated in words by the source.
